# Results: article PMC7819943, “Rice protein-binding microarrays: a tool to detect cis-acting elements near promoter regions in rice”
# This is one part of the list.
# Biological target: T1, OsSMF1 (Oryza sativa, UniProt Q6ZLB0 1-436)
# T1 sequence: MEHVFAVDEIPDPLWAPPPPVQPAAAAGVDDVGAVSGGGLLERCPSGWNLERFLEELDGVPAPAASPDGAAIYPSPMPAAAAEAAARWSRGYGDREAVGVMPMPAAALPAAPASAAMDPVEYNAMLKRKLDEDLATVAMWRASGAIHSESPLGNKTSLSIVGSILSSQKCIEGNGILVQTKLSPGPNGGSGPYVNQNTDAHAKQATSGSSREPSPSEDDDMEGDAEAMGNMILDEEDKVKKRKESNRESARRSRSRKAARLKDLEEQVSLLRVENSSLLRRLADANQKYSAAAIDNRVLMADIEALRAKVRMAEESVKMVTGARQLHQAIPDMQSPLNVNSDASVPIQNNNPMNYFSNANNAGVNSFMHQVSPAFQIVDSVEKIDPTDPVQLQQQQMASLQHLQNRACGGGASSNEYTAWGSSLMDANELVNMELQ
# Assay: protein-binding microarray (RPBM); PBS, 2% BSA, 51.3 ng/ul salmon testes DNA, 50 uM zinc acetate, 200 nM TF, 25 C, 1 h; high values mean tight binding
# Details: protein: recombinant; tags: N-terminal polyhistidine and DsRed monomer fusion (pET32a); chain copies: 2; label: CyDye5-dUTP incorporated in the synthesized complementary strand; 3' TTTTT single-stranded linker to array surface; dsDNA, one strand shown
# How it was run: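 Transcription factors, each fused N-terminally to a polyhistidine tag and DsRed, were expressed in E. coli BL21-CodonPlus and purified on Ni–NTA. A custom Agilent array was made double-stranded by primer extension with Cy5-dUTP and blocked with 2% BSA. It was incubated with 200 nM protein in PBS, 2% BSA, salmon testes DNA and 50 µM zinc acetate at 25 °C for 1 h, then washed. The binding signal is per-feature fluorescence intensity (arbitrary units) read on an Axon 4000B scanner.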
row,Sequence,binding signal
1,TAACATTTTGAATCAGGCGTAACACTTGTTTGGATTGCTTCGGAGTCACCTAGTGCAG,35600 fluorescence intensity (a.u.)
2,TATAGTCAAAATTACTTTTCTAATGTGATAGACTGATAGTCGGAGTCACCTAGTGCAG,4350 fluorescence intensity (a.u.)
3,GCGCCGACTCACTCCACCACCTCATCTCATCAGCTGCCTCCGGAGTCACCTAGTGCAG,5320 fluorescence intensity (a.u.)
4,GTCAAGGACGCATCACACATGGCGTGTCTCTCTGCCTTGCCGGAGTCACCTAGTGCAG,4050 fluorescence intensity (a.u.)
5,CTGGCACATCGGCGAGCAGCACGACACGTTGGCGCACGTCCGGAGTCACCTAGTGCAG,6440 fluorescence intensity (a.u.)
6,TGATGATGGCCATGGCGGCCATGATCGTCATCAGCTGCTCCGGAGTCACCTAGTGCAG,3460 fluorescence intensity (a.u.)
7,GGTATTCATCTAATGTCTCGAGGCCACACGTCAAGACTGACGGAGTCACCTAGTGCAG,3820 fluorescence intensity (a.u.)
8,TCTAGCCAAGGGTCACGATCTCCACGAATTTCGACCATCTCGGAGTCACCTAGTGCAG,3260 fluorescence intensity (a.u.)
9,CGTGCCGCTGCCGTCGCGCACTGCCCGTTGACGCACGCCTCGGAGTCACCTAGTGCAG,3800 fluorescence intensity (a.u.)
10,TTCACGGCAACCTCTCGGAGCGTGGTCGCAGCAACGGCCGCGGAGTCACCTAGTGCAG,21900 fluorescence intensity (a.u.)
11,TTTAATCTAATGGACCTGATCTAATTATACTTCCACGTCACGGAGTCACCTAGTGCAG,11700 fluorescence intensity (a.u.)
12,CCACACCAGCACACACGTCTTTTAATAAAACGTGTCGTATCGGAGTCACCTAGTGCAG,5130 fluorescence intensity (a.u.)
13,GTGAGAGAAGCCGCCTTGGATGATGTCAACCATGGTGGCGCGGAGTCACCTAGTGCAG,6930 fluorescence intensity (a.u.)
14,ACTTGTACTTGTGAGGGGTAGAAACGTCATATCGTGTGTGCGGAGTCACCTAGTGCAG,3460 fluorescence intensity (a.u.)
15,AAATAGCAAGAGAACATATGCAGTCATGAGTCATAAGGGACGGAGTCACCTAGTGCAG,4840 fluorescence intensity (a.u.)
16,TTGGGCGAGGTAGAGGCGGCGCCGGTGTCATCACCGTCGTCGGAGTCACCTAGTGCAG,5140 fluorescence intensity (a.u.)
17,ACCCACCAACCCGGGTGGTTCGTGTCGTGGCATTCATGGCCGGAGTCACCTAGTGCAG,7120 fluorescence intensity (a.u.)
18,AATCTTCCATCCATCCATATTCAATACACTATACACCGTACGGAGTCACCTAGTGCAG,16500 fluorescence intensity (a.u.)
19,TCCCACACTTGCGACTCCTGCCGCGACGACGACGACGACACGGAGTCACCTAGTGCAG,4140 fluorescence intensity (a.u.)
20,AGAATCATCTCCTGCATACATACGTCAACCGTCTCCATCCCGGAGTCACCTAGTGCAG,3990 fluorescence intensity (a.u.)
21,GATGGTGGAAGAGCAGCCACGCTGGGACACGTGGACGGCCCGGAGTCACCTAGTGCAG,13400 fluorescence intensity (a.u.)
22,CCCCATCAACCGCCGCTGACGCCCCTGCCTCTGAGTCCACCGGAGTCACCTAGTGCAG,3740 fluorescence intensity (a.u.)
23,CCGTCCTAGAGTTCTTCTACCTCCCCTTCCAAAACTTCCTCGGAGTCACCTAGTGCAG,35800 fluorescence intensity (a.u.)

# In another format: entries from further up
row	Sequence	binding signal
12	CCACACCAGCACACACGTCTTTTAATAAAACGTGTCGTATCGGAGTCACCTAGTGCAG	5130 fluorescence intensity (a.u.)
13	GTGAGAGAAGCCGCCTTGGATGATGTCAACCATGGTGGCGCGGAGTCACCTAGTGCAG	6930 fluorescence intensity (a.u.)
14	ACTTGTACTTGTGAGGGGTAGAAACGTCATATCGTGTGTGCGGAGTCACCTAGTGCAG	3460 fluorescence intensity (a.u.)
15	AAATAGCAAGAGAACATATGCAGTCATGAGTCATAAGGGACGGAGTCACCTAGTGCAG	4840 fluorescence intensity (a.u.)
16	TTGGGCGAGGTAGAGGCGGCGCCGGTGTCATCACCGTCGTCGGAGTCACCTAGTGCAG	5140 fluorescence intensity (a.u.)
